For this assay, the target named is wild-type CENPK (full-length CENPK), Flag–GFP–CENPK construct (human) (UniProt Q9BS16). As to the kind of experiment: affinity purification with mass spectrometry; IP with tag (Flag) antibody and Protein A/G magnetic beads from lysates of LNCaP cells overexpressing CENPK–delta8 or wild-type CENPK (empty vector as control); cells treated with Abiraterone; IP Lysis buffer pH 7.4, 0.025 M Tris, 0.15 M NaCl, 0.001 M EDTA, 1% NP40, 5% glycerol; 4 °C overnight; silver-stained bands cut for MS.

Amino acid sequences for entries named in this document (tags omitted).
UniProt Q9BS16: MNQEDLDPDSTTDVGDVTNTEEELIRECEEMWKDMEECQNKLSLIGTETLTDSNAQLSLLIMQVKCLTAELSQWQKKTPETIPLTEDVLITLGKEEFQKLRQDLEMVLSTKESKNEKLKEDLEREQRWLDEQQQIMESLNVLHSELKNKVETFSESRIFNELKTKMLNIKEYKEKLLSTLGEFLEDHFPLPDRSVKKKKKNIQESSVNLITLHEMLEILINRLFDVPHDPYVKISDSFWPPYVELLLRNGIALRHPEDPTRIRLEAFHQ
UniProt P21333: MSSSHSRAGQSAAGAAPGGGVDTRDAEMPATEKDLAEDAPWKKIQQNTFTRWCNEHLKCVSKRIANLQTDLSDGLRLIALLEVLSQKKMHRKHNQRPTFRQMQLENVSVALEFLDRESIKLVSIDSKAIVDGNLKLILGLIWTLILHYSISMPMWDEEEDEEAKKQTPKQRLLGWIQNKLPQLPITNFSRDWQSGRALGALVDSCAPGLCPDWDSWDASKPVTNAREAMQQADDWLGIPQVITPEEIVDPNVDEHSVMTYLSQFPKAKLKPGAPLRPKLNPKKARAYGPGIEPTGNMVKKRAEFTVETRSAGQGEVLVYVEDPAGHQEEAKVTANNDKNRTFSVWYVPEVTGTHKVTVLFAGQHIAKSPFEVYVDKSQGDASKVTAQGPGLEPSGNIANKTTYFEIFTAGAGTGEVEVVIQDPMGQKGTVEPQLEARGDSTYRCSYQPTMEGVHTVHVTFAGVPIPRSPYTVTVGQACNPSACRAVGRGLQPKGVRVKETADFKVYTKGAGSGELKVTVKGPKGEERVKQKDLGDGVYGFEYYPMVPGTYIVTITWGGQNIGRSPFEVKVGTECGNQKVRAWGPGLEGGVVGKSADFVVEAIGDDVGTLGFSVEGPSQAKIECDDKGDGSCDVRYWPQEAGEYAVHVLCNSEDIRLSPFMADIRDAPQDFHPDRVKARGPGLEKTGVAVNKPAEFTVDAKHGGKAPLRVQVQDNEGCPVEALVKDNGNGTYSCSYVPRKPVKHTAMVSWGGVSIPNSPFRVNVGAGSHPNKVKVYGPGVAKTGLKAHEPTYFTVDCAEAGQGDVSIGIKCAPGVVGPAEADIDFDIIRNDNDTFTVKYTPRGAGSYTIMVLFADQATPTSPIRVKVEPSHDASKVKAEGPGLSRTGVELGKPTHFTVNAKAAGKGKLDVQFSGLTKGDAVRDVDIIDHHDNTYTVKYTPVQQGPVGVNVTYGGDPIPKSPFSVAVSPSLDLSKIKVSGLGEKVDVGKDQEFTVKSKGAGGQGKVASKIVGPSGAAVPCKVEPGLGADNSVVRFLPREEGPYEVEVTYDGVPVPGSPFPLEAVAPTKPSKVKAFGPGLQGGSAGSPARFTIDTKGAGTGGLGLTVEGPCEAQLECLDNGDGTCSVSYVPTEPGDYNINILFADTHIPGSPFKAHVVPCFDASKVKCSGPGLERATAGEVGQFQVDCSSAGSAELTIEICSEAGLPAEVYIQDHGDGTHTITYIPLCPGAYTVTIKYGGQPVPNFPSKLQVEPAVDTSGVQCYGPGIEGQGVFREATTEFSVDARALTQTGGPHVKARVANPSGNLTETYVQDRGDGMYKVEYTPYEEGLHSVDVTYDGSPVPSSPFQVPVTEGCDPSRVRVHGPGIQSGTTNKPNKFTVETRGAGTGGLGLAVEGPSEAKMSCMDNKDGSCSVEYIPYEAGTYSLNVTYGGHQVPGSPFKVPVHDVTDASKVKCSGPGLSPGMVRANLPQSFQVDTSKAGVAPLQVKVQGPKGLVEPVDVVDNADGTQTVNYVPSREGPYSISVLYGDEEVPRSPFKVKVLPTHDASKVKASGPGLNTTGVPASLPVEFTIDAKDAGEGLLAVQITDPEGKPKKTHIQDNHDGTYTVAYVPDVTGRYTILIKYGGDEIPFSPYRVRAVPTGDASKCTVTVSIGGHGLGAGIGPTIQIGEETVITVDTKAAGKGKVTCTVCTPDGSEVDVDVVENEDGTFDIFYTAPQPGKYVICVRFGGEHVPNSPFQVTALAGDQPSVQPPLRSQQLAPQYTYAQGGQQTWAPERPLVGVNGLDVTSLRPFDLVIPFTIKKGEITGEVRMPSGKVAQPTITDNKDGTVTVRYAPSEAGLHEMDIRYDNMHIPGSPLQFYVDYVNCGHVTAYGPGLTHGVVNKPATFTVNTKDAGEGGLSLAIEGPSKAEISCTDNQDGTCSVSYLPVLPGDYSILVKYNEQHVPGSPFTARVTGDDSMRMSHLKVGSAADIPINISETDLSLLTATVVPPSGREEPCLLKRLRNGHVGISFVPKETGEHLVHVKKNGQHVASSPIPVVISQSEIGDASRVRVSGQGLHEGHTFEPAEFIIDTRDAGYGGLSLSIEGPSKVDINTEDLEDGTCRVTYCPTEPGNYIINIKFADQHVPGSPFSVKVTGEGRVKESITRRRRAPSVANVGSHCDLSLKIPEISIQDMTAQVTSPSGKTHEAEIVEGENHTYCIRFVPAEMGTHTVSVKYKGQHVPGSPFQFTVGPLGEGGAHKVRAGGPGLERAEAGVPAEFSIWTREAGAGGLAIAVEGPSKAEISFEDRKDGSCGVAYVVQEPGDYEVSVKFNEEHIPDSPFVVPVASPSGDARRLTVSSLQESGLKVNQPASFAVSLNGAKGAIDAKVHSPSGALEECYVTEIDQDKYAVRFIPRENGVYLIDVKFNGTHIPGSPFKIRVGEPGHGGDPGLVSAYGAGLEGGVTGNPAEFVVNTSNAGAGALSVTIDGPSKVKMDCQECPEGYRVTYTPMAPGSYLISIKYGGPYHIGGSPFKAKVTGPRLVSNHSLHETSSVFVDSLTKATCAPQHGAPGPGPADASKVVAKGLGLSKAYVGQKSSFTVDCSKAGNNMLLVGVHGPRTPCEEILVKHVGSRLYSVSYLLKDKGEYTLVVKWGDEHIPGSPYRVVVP

Results are given in words; binding and its absence hold for the method and conditions named. In cells and extracts the contact can be indirect. Here binding means that the protein was enriched with, or labelled near, the bait; the list need not be complete. A no says only that the protein was not detected with the bait.

With FLNA (from UniProt P21333 1-2647), the binding entry is on record as “no binding”.

B1: FLOT1 (protein, UniProt O75955 1-427)
chain: MFFTCGPNEAMVVSGFCRSPPVMVAGGRVFVLPCIQQIQRISLNTLTLNVKSEKVYTRHGVPISVTGIAQVKIQGQNKEMLAAACQMFLGKTEAEIAHIALETLEGHQRAIMAHMTVEEIYKDRQKFSEQVFKVASSDLVNMGISVVSYTLKDIHDDQDYLHSLGKARTAQVQKDARIGEAEAKRDAGIREAKAKQEKVSAQYLSEIEMAKAQRDYELKKAAYDIEVNTRRAQADLAYQLQVAKTKQQIEEQRVQVQVVERAQQVAVQEQEIARREKELEARVRKPAEAERYKLERLAEAEKSQLIMQAEAEAASVRMRGEAEAFAIGARARAEAEQMAKKAEAFQLYQEAAQLDMLLEKLPQVAEEISGPLTSANKITLVSSGSGTMGAAKVTGEVLDILTRLPESVERLTGVSISQVNHKPLRTA
B1: the binding entry is “no binding”.

The values above are taken from article PMC11475995.
